{"source": "patent US7998493B2", "about": "“Cosmetic or dermopharmaceutical compositions which are used to reduce bags and circles under the eyes” (Sederma SAS, priority 2002, dated 2011)", "key": {"[1]": {"system": "IL-6 in normal human fibroblasts", "assay": "Regulation of the level of IL-6 in fibroblasts (ELISA), with or without UV irradiation", "assay_type": "cell-based", "conditions": "for Cellular IL-6: Fibroblasts"}, "[2]": {"system": "IL-6 in normal human keratinocytes", "assay": "Regulation of the level of IL-6 in keratinocytes (ELISA), with or without UV irradiation", "assay_type": "cell-based", "conditions": "for Cellular IL-6: Keratinocytes"}}, "note": "Not every detail of the peptide structures is certain; ends, links or a residue may be inferred. Peptide text beside a SMILES is read from it. * marks the point of attachment. Palmitoyl = CCCCCCCCCCCCCCCC(=O)*"}
{"molecule": "CCCCCCCCCCCCCCCC(=O)NCC(=O)N[C@@H](CCC(N)=O)C(=O)N1CCC[C@H]1C(=O)N[C@@H](CCCNC(=N)N)C(=O)O", "note": "[N-Palmitoyl-Gly-Gln-Pro-Arg] (Palmitoyl-GQPR-OH)", "values": [{"measurement": "Cellular IL-6", "setting": "[1]; irradiated 35 mJ/cm^2, 10 ppm", "result": 94.7, "unit": "pg/ml/20 000 cells"}, {"measurement": "Cellular IL-6", "setting": "[1]; irradiated 35 mJ/cm^2, 15 ppm", "result": 75.5, "unit": "pg/ml/20 000 cells"}, {"measurement": "Cellular IL-6", "setting": "[1]; irradiated 35 mJ/cm^2, 30 ppm", "result": 71.8, "unit": "pg/ml/20 000 cells"}, {"measurement": "Cellular IL-6", "setting": "[1]; irradiated 35 mJ/cm^2, 45 ppm", "result": 56.2, "unit": "pg/ml/20 000 cells"}, {"measurement": "Cellular IL-6", "setting": "[1]; not irradiated, 10 ppm", "result": 22.2, "unit": "pg/ml/20 000 cells"}, {"measurement": "Cellular IL-6", "setting": "[1]; not irradiated, 15 ppm", "result": 18.4, "unit": "pg/ml/20 000 cells"}, {"measurement": "Cellular IL-6", "setting": "[1]; not irradiated, 30 ppm", "result": 18.0, "unit": "pg/ml/20 000 cells"}, {"measurement": "Cellular IL-6", "setting": "[1]; not irradiated, 45 ppm", "result": 17.0, "unit": "pg/ml/20 000 cells"}, {"measurement": "Reduction of the baseline level of IL-6", "setting": "[1]; fibroblasts, highest concentration tested (45 ppm), not irradiated", "result": 26.4, "unit": "%"}, {"measurement": "Reduction of the overproduction of IL-6 due to UV irradiation", "setting": "[1]; fibroblasts, highest concentration tested (45 ppm), vs untreated irradiated cells", "result": 48.0, "unit": "%"}, {"measurement": "Cellular IL-6", "setting": "[2]; irradiated 35 mJ/cm^2, 10 ppm", "result": 0.519, "unit": "pg/ml/20 000 cells"}, {"measurement": "Cellular IL-6", "setting": "[2]; irradiated 35 mJ/cm^2, 15 ppm", "result": 0.490, "unit": "pg/ml/20 000 cells"}, {"measurement": "Cellular IL-6", "setting": "[2]; irradiated 35 mJ/cm^2, 30 ppm", "result": 0.376, "unit": "pg/ml/20 000 cells"}, {"measurement": "Cellular IL-6", "setting": "[2]; irradiated 35 mJ/cm^2, 45 ppm", "result": 0.325, "unit": "pg/ml/20 000 cells"}, {"measurement": "Cellular IL-6", "setting": "[2]; not irradiated, 10 ppm", "result": 0.055, "unit": "pg/ml/20 000 cells"}, {"measurement": "Cellular IL-6", "setting": "[2]; not irradiated, 15 ppm", "result": 0.053, "unit": "pg/ml/20 000 cells"}, {"measurement": "Cellular IL-6", "setting": "[2]; not irradiated, 30 ppm", "result": 0.038, "unit": "pg/ml/20 000 cells"}, {"measurement": "Cellular IL-6", "setting": "[2]; not irradiated, 45 ppm", "result": 0.036, "unit": "pg/ml/20 000 cells"}, {"measurement": "Reduction of the baseline level of IL-6", "setting": "[2]; keratinocytes, highest concentration tested (45 ppm), not irradiated", "result": 49.2, "unit": "%"}, {"measurement": "Reduction of the overproduction of IL-6 due to UV irradiation", "setting": "[2]; keratinocytes, highest concentration tested (45 ppm), vs untreated irradiated cells", "result": 56.8, "unit": "%"}]}
